Data on one compound can be found in ChEMBL document CHEMBL3352635, “Gastric-sparing nitric oxide-releasable 'true' prodrugs of aspirin and naproxen” (Bioorg Med Chem Lett, 2014).

This data set is described as follows: in vivo. The settings on record: Sprague-Dawley, rat, plasma, po, 10 mg/kg.

The structures appear in SMILES notation.

In turn, `COc1ccc2cc([C@H](C)C(=O)O)ccc2c1` [NAPROXEN] gave an exposure (AUC) of 208 µg·h/mL.
